For the test, the target named is epitope-tagged (V5) full-length murine TLT-1 (TREM-like transcript-1) expressed in HEK293T cells (mouse) (UniProt Q8K558). Nature of the test: immunoprecipitation and Western blot of surface-biotinylated cells in nonreducing buffer.

No constants are given. Whether binding was seen depends on the method and setting. Some results given as binding are weak or reduced against the parent protein; the word gives no strength. Where a sequence is shown, tags or fusion partners need not be part of it.

B1: epitope-tagged (V5) full-length murine TLT-1 (TREM-like transcript-1) expressed in HEK293T cells (receptor, not shown: small tags and cut ends)
chain: QGSADSHPEVLQAPVGSSILVQCHYRLQDVRALKVWCQFLQEGCHPLVTSAVDRRAPGNGRIFLTDLGGGLLQVEMVTLQEEDTGEYGCVVEGAAGPQTLHRVSLLVLPPVPGPREGEEAEDEKETYRIGTGSLLEDPSLDPSASAGPHEFRRRENRCQKQCIPLIWGAVLLLALVVVAVVIFAVMARKKGNRLVVCGPSQSTGVPGMDPPSAAHRSSDSGLPSDIPHVRLDSPPSFDSIYTGSSLDPPSSEPPAPPSQPPLPPKVLMSSKSVTYATVVFPGGDKGKIASCEPVQDPPNSQTPPSK
Regarding B1, the binding entry is recorded as “binds”.

(Values after patent publication US20040180409A1.)
